Data as given in PubChem BioAssay AID504786 (Drosophila RNAi Screening Center, 2011)
Test: 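Fly genes required for HIF-dependent transcription when hypoxia is mimicked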 (primary screen). Cell system: Drosophila S2 cells with a stable HIF luciferase reporter. Reagents: long dsRNA against Drosophila genes, about 0.2 µg dsRNA per well of a 384-well plate. Timing: three days of knock-down, then 20 h of DFO before reading. Treatment: desferrioxamine (DFO) at 100 µM, an iron chelator that mimics hypoxia, for 20 h. Detection: 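HIF reporter luminescence in cells given 100 µM DFO for 20 h, using the mouse ldh-a hypoxia-response element, scored as per-plate z-scores; higher means greater loss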. Direction: z-score: higher = stronger loss of HIF reporter signal.
In all, the deposit lists about 21,000 reagents; shown is a random part of those with a known target gene and a result. 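Primary screen; positive scores mean lost reporter signal, so the sign may be inverted from the usual convention.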 The numbers tell different reagents against one gene apart. A plus sign joins genes that one reagent is predicted to hit.

Against CG13054, the entry reads z-score, replicate 1 = -0.4; z-score, replicate 2 = -0.6.
Silencing of CG13192 resulted in: z-score, replicate 1 = -0.4; z-score, replicate 2 = -0.4.
After knock-down of LSm7, the record shows z-score, replicate 1 = -0.1; z-score, replicate 2 = 0.2.
CG7668 scored z-score, replicate 1 = -0.3; z-score, replicate 2 = -0.5.
For CG10680, the values are z-score, replicate 1 = -0.3; z-score, replicate 2 = -0.4.
After knock-down of Mon1, the record shows z-score, replicate 1 = -0.2; z-score, replicate 2 = -0.3.
After knock-down of CG33253 #1, the screen gave z-score, replicate 1 = 0; z-score, replicate 2 = 0.1.
Against CG33253 #2 the deposit lists z-score, replicate 1 = -0.5; z-score, replicate 2 = -0.6.
After knock-down of CG7786, the record shows z-score, replicate 1 = -0.3; z-score, replicate 2 = -0.2.
With knock-down of Drep1, the record shows z-score, replicate 1 = -0.5; z-score, replicate 2 = -0.9.
Against CG6652, the entry reads z-score, replicate 1 = -0.3; z-score, replicate 2 = -0.6.
CG16799 showed z-score, replicate 1 = -0.4; z-score, replicate 2 = -0.1.
anchor gave z-score, replicate 1 = -0.3; z-score, replicate 2 = -0.1.
After knock-down of CG40948 (retired record), the screen gave z-score, replicate 1 = 0.3; z-score, replicate 2 = -0.1.
With knock-down of Mur29B #1, the record shows z-score, replicate 1 = 0; z-score, replicate 2 = -0.3.
Mur29B #2 showed z-score, replicate 1 = -0.2; z-score, replicate 2 = -0.7.
CG34450 gave z-score, replicate 1 = -0.3; z-score, replicate 2 = -0.5.
After knock-down of Gr94a, the screen gave z-score, replicate 1 = 0.4; z-score, replicate 2 = 0.3.
Against tomboy40, the entry reads z-score, replicate 1 = -0.3; z-score, replicate 2 = -0.2.
After knock-down of CG1640, the record shows z-score, replicate 1 = 0; z-score, replicate 2 = -0.2.
Depletion of CG14102 gave: z-score, replicate 1 = -0.2; z-score, replicate 2 = -0.3.
Silencing of Gasp resulted in: z-score, replicate 1 = -0.4; z-score, replicate 2 = -0.5.
For CG2962 the deposit lists z-score, replicate 1 = -0.4; z-score, replicate 2 = -0.3.
Against CG30109 + CG30108 the deposit lists z-score, replicate 1 = 0.1; z-score, replicate 2 = -0.3.
bru2 #1 showed z-score, replicate 1 = 0.4; z-score, replicate 2 = 0.1.
bru2 #2 showed z-score, replicate 1 = 2; z-score, replicate 2 = 2.4.
Depletion of bru2 #3 resulted in: z-score, replicate 1 = 0.1; z-score, replicate 2 = -0.2.
After knock-down of bru2 #4, the record shows z-score, replicate 1 = -0.3; z-score, replicate 2 = -0.5.
After knock-down of bru2 #5 the results were z-score, replicate 1 = 4.6; z-score, replicate 2 = 2.8.
After knock-down of CG11293 (retired record), the screen gave z-score, replicate 1 = -0.4; z-score, replicate 2 = -0.4.
ssh showed z-score, replicate 1 = -0.1; z-score, replicate 2 = -0.2.
For NKAIN the deposit lists z-score, replicate 1 = -0.1; z-score, replicate 2 = 0.1.
Against CG4781 the deposit lists z-score, replicate 1 = -0.1; z-score, replicate 2 = -0.2.
qm gave z-score, replicate 1 = 0; z-score, replicate 2 = -0.9.
With knock-down of bcd + CR14578, the screen gave z-score, replicate 1 = -0.8; z-score, replicate 2 = 0.6.
Knock-down of CG13066 came out at: z-score, replicate 1 = -0.3; z-score, replicate 2 = -0.8.
With knock-down of CG3494, the record shows z-score, replicate 1 = -0.3; z-score, replicate 2 = -0.2.
After knock-down of CG12010 the results were z-score, replicate 1 = -0.3; z-score, replicate 2 = -0.7.
After knock-down of eys #1, the record shows z-score, replicate 1 = -0.3; z-score, replicate 2 = 0.1.
Depletion of eys #2 came out at: z-score, replicate 1 = 0.3; z-score, replicate 2 = 0.3.
Depletion of eys #3 gave: z-score, replicate 1 = 0; z-score, replicate 2 = 0.1.
Silencing of eys #4 gave: z-score, replicate 1 = -0.2; z-score, replicate 2 = -0.2.
